Among all 320,000 compounds or so, about 22,000 (6.9%) were called active. Inconclusive results, whose numbers are uncertain, are shown with a selection of clear calls. Calls follow the shape of the dose curve; as a rule, active = well fitted inhibition curve with a large enough effect; inconclusive = small, poorly fitted or top-dose-only effect, or another doubt; inactive = no such curve, though single readings can be large or run the other way. Potencies beside an inconclusive call are fits to weak or partial responses and may not hold up.
Assay: Primary qHTS for delayed death inhibitors of the malarial parasite plastid, 96 hour incubation
Settings: P. falciparum luciferase reporter growth; series mostly up to 28.7 µM; activity change, negative = inhibition: at the top concentration
Summary of the method: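 Readout is luminescence from an integrated firefly luciferase in P. falciparum. Red cells, 2% hematocrit and 0.05% parasitemia final, were cultured with compound through two parasite generations (96 hours) at 37 C, 5% CO2.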
% is scaled to controls: 0 for no effect and ±100 for the full control effect; potency is read from the fitted curve at half-maximal effect.

SMILES	Potency	activity change, negative = inhibition
Cc1c(/C=N/NC(=O)CNc2ccccc2)c2ccccn2c1C(=O)c1ccncc1	inconclusive: 3.7 µM [inhibitor, full curve, poor fit]	–
CO/N=C(\C(=O)N[C@@H]1C(=O)N2C(C(=O)[O-])=C(C[N+]3(C)CCCC3)CS[C@@H]12)c1csc(N)n1	–	inactive: -3.68%
O=C(c1c[nH]c(C(=O)C(Cl)(Cl)Cl)c1)c1ccccc1Br	inconclusive: 18.5 µM [inhibitor, single point]	–
CS(=O)(=O)c1ncc(Cl)c(C(=O)Nc2ccc(N3CCOCC3)cc2)n1	inconclusive: 0.0329 µM [inhibitor, full curve, poor fit]	–
O=C(COc1ccc(Cl)cc1)NCCSc1ccccc1	inconclusive: 11.7 µM [inhibitor, single point]	–
Cc1ccc(N2C(=O)C(c3c(C)[nH]n(-c4ccccc4)c3=O)(C(F)(F)F)C3=C2CC(C)(C)CC3=O)cc1 (configuration not stated)	inconclusive: 18.5 µM [inhibitor, single point]	–
COc1ccccc1NS(=O)(=O)c1cc(NC(=O)c2cccc(S(=O)(=O)N(C)C)c2)ccc1N1CCOCC1	active: 1.47 µM	–
Nc1nc2n(n1)C(c1ccccc1Cl)CC(c1ccc(F)cc1)N2 (configuration not stated)	active: 1.65 µM	–
C=CCn1c(SC(F)F)nc2scc(-c3ccco3)c2c1=O	–	inactive: 4.52%
CCCNC(=O)Cn1cnc2sc(C(=O)Nc3cc(OC)c(OC)c(OC)c3)c(C)c2c1=O	inconclusive: 18.5 µM [inhibitor, single point]	–
CCS(=O)(=O)c1ccc(-c2cccc(NC(=O)c3ccc(Br)o3)c2)nn1	–	inactive: 1.83%
COC(=O)c1sc(S(=O)(=O)N2CC(C)OC(C)C2)c(C(=O)OC)c1C (configuration not stated)	inconclusive: 18.5 µM [inhibitor, single point]	–
Cc1cc(OCc2cc(C(=O)N3CCN(CC4CC4)CC3)no2)cc(C)c1Cl	inconclusive: 11.7 µM [inhibitor, single point]	–
O=C/C(=C\Nc1ccccn1)c1nc2cc(Cl)ccc2o1	inconclusive: 18.5 µM [inhibitor, single point]	–
COc1ccc(C)cc1NC(=O)C(OC(=O)c1ccc(Cl)c(S(=O)(=O)N(C)c2ccccc2)c1)c1ccccc1 (configuration not stated)	inconclusive: 18.5 µM [inhibitor, single point]	–
COc1ccc(NC(=O)c2nc[nH]c2C(=O)N[C@@H](C)c2ccccc2)cc1	inconclusive: 1.04 µM [inhibitor, partial curve, poor fit]	–
CCN(CC(=O)Nc1sc2c(c1C#N)CCC(C)C2)Cc1nc2ccccc2c(=O)[nH]1 (configuration not stated)	inconclusive: 9.28 µM [inhibitor, single point]	–

Two successive compounds from above, for reference:
SMILES	Potency	activity change, negative = inhibition
Cc1ccc(N2C(=O)C(c3c(C)[nH]n(-c4ccccc4)c3=O)(C(F)(F)F)C3=C2CC(C)(C)CC3=O)cc1 (configuration not stated)	inconclusive: 18.5 µM [inhibitor, single point]	–
COc1ccccc1NS(=O)(=O)c1cc(NC(=O)c2cccc(S(=O)(=O)N(C)C)c2)ccc1N1CCOCC1	active: 1.47 µM	–

From PubChem BioAssay AID504834 (National Center for Advancing Translational Sciences (NCATS), 2011)
